# These are yes or no findings as the source states them, for the method shown. Binding can be weak; no strength is given.
# B1: sdAb A69449 (VHH, not shown: small tags and cut ends)
# VHH: QVQLVESGGGVVQAGGSLRLSCVASGSVFSIDAMGWYRQAPGNQRELVAAMTNAGSTNYADSVKGRFTISRDNAENTVYLQMNSLKPEDTAVYYCNARSKLIARINNPYEYWGQGTQVTVSS
# B2: sdAb A69447 (VHH, not shown: small tags and cut ends)
# VHH: QVKLEESGGGSVQAGGSLRLSCTGSGSIFPLNDMGWYRQAPGKQRELVATITRGGTTNYADSVKGRFTISRDSNAKNTVYLQMNSLKVEDTAVYYCNMDNRVGGSYWGQGTQVTVSS
# B3: sdAb A69433 (VHH, not shown: small tags and cut ends)
# VHH: QVKLEESGGGLVQAGGSLRLSCVASGNVFGIDAVGWYRQAPGKQRELVAATTTSGSSTNYADSVKGRFTISRDIAKNTVYLQMDSLKPEDTAVYYCYARPKQATLIRDDYWGQGTQVTVSS
# Target: monkey transferrin (monkey)
# Experiment: SPR
row,binding,Binder
1,binds,B1
2,binds,B2
3,binds,B3

# Source: patent US20160200830A1
